According to publication PMC8010706:
No constants are given. Whether binding was seen depends on the method and setting. Binding seen in cells or lysates may run through a third protein. Some binding calls cover weakened binding; strength is not graded here. Sequences can lack the tags named with a protein.

The chains behind the UniProt entries cited, without tags or fusion partners. Where a name states a change or a piece, a line headed by the entry shows the natural chain unless it says otherwise. A line that says so, or that is headed by a name, gives the form on record, which may keep a tag or linker. Residues count along the entry.
UniProt O43765: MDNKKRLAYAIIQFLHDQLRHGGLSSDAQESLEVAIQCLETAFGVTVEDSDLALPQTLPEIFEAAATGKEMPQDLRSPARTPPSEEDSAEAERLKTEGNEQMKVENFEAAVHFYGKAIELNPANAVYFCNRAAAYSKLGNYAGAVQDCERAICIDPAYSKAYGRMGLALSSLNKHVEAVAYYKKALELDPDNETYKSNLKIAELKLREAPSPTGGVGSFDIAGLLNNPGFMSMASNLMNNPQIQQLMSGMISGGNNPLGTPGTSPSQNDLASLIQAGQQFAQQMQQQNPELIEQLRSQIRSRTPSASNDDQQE
His-tagged hSgt2-TPR-C (hSgt2 87-313): residues 87-313 of O43765
His-tagged hSgt2-C (hSgt2 213-313): residues 213-313 of O43765
His-tagged hSgt2-C_(cons) (hSgt2 219-300): residues 219-300 of O43765
His-tagged hSgt2-ΔH0 (hSgt2 228-300): residues 228-300 of O43765

Legend:
Experiment in all cases: pull-down; capture assay: His-tagged Sgt2 construct coexpressed with MBP-Sbh1 in E. coli; lysate incubated in batch with Ni-NTA resin at 4 °C for 1 h, washed with 20 mM Tris, 150 mM NaCl, 25 mM imidazole, 10 mM BME, pH 7.5, eluted with 300 mM imidazole; Coomassie-stained gel, MBP-Sbh1/Sgt2 ratio normalised to wild type
[1] = target: His-tagged hSgt2-C (hSgt2 213-313) (Homo sapiens) (UniProt O43765)
[2] = target: T1, His-tagged ySgt2-TPR-C (ySgt2 95-346) (Saccharomyces cerevisiae) (UniProt Q12118)
T1 sequence: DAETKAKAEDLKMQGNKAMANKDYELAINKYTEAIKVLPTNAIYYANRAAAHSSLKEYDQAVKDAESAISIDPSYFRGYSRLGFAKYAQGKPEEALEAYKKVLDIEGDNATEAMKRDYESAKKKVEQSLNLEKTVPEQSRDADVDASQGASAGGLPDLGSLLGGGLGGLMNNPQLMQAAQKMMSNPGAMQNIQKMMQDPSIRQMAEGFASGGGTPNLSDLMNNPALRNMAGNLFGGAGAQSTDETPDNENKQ

[3] = target: His-tagged hSgt2-C_(cons) (hSgt2 219-300) (Homo sapiens) (UniProt O43765)
[4] = target: T2, His-tagged ySgt2-C (ySgt2 222-346) (Saccharomyces cerevisiae) (UniProt Q12118)
T2 sequence: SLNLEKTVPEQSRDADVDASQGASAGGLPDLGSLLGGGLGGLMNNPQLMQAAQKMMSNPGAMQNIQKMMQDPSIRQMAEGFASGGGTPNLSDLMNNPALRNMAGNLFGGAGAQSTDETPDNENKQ

[5] = target: T3, His-tagged ySgt2-C_(cons) (ySgt2 260-327) (Saccharomyces cerevisiae) (UniProt Q12118)
T3 sequence: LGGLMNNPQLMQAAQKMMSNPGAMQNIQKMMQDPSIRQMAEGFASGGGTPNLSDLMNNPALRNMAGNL

[6] = target: T4, His-tagged ySgt2-ΔH0 (ySgt2 266-327) (Saccharomyces cerevisiae) (UniProt Q12118)
T4 sequence: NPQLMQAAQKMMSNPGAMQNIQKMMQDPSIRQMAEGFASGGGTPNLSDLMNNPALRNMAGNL

[7] = target: His-tagged hSgt2-ΔH0 (hSgt2 228-300) (Homo sapiens) (UniProt O43765)
[8] = target: His-tagged hSgt2-TPR-C (hSgt2 87-313) (Homo sapiens) (UniProt O43765)

Measured: binding

B1: MBP-Sbh1 full length (protein, UniProt P52870 1-82)
chain: MSSPTPPGGQRTLQKRKQGSSQKVAASAPKKNTNSNNSILKIYSDEATGLRVDPLVVLFLAVGFIFSVVALHVISKVAGKLF
binds: all assays above
